This note sets out measurements from PubChem BioAssay AID2685 (National Center for Advancing Translational Sciences (NCATS), 2010).

The nature of the experiment: qHTS Assay for Lipid Storage Modulators in Drosophila S3 Cells.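 For cell number change: cells counted by Cell Tracker Red CMTPX staining in the red channel.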 The note with it: BODIPY lipid droplet fluorescence, 18-24 h; for cell number change: measured here: cell count max response, cells fed with added oleic acid. The gist of the method:
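Drosophila S3 cells got compounds at several concentrations plus oleic acid (400 uM solution). Laser-scanning cytometry with 488 nm excitation read lipid droplets at 500-530 nm and cells at 575-640 nm. Percent activity was relative to 20 uM Triacsin C.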
Background: qHTS replaces the single test concentration by a dilution series.

The mark [1] stands for this setting: measured here: lipid fluorescence (Fed channel) AC50, cells fed with added oleic acid.
[2] abbreviates: measured here: cell number channel AC50, cells fed with added oleic acid.

The other results are listed elsewhere or left out. These are further read-outs of the screen, such as a control signal, another cell line or another target. No call is given for them. The list favours compounds with an active or inconclusive main result. The note in brackets gives the kind of curve behind each potency; many fits are weak.

`COc1ccc(C(=O)NCC(=O)OCc2ccc(Cl)cc2Cl)cc1OC`: the cell number change is 13.4%. For the same molecule, under setting [1], the AC50 (usually the concentration giving half of the maximal activity seen) was 1.46 µM [rising, single point].
For the molecule `CCC1(CC)Cc2ccccc2-c2nc(NCCO)[nH]c(=O)c21`, the cell number change is -48.8%. Under setting [2], the AC50 was 29.1 µM [falling, single point]. Also, the concentration at half-maximal activity (AC50) under setting [1] was 29.1 µM [falling, single point].
Consider `Cc1nnc2c(NC(C)C)nc3ccccc3n12`, for which the cell number change amounted to 34.7%. Moreover, under setting [2], the AC50 is 6.51 µM [rising, partial curve]. Besides, under setting [1], the AC50 was 14.6 µM [rising, partial curve, poor fit].
Regarding `Nc1cc(Cl)nc(N/N=C/c2ccc([N+](=O)[O-])cc2)n1`, the cell number change was 14.2%. Under setting [1], the AC50 was 1.03 µM [rising, full curve, poor fit].
For `CCOCC(=O)Nc1ccc(-c2cn3cccnc3n2)cc1`, the cell number change is -143%. Besides, under setting [2], the AC50 was 29.1 µM [falling, single point]. Under setting [1], the half-maximal activity concentration (AC50) is 29.1 µM [falling, single point].
As for `CC(NC(=S)NCc1ccccc1)C12CC3CC(CC(C3)C1)C2` (stereo unspecified), the cell number change was -11.2%. Also, the AC50 under setting [1] is 16.4 µM [rising, single point].
As to `CC(C)(O)C#Cc1ccc([C@@H]2C[C@H]3CN(c4ccccc4)C(=O)[C@]34CCCN24)s1`, the cell number change was -5.43%. Also, under setting [1], the AC50 is 0.517 µM [falling, single point].
Regarding `CCn1cc(C(=O)NCc2ccccc2)c(=O)c2cc(F)c(N3CCN(C(=O)c4ccco4)CC3)cc21`, the cell number change is -3.2%. Further, under setting [1], the AC50 is 0.164 µM [falling, full curve, poor fit].
Turning to `COc1ccc(CCNC(=O)COc2ccc([N+](=O)[O-])cc2)cc1`, the cell number change stood at 100%. For the same molecule, the AC50 under setting [2] was 3.66 µM [falling, partial curve].
Regarding `Cc1ccc(OCC(=O)N2CCN(C(=O)c3ccco3)CC2)cc1`, the cell number change is -40.6%. Besides, the AC50 under setting [2] is 4.11 µM [falling, full curve, poor fit]. The AC50 under setting [1] is 3.26 µM [falling, full curve].
Consider `O=C(Nc1ccc2c(c1)OCO2)C1Cc2ccccc2CN1S(=O)(=O)c1cccs1` (stereo unspecified), for which the cell number change was 17.7%. The AC50 under setting [1] is 2.06 µM [rising, full curve].
Consider `CC(=O)C1=C(O)C(=O)N(CCc2ccccc2)C1c1ccccc1[N+](=O)[O-]` (stereo unspecified), for which the AC50 runs as follows: under setting [2], 0.082 µM [falling, full curve, poor fit]; under setting [1], 6.51 µM [falling, single point].
For the molecule `CCOC(=O)c1ccc(S(=O)(=O)NCC(c2ccc(N(C)C)cc2)c2c[nH]c3ccccc23)cc1` (stereo unspecified), the cell number change is -50.8%. Moreover, the concentration at half-maximal activity (AC50) under setting [2] is 16.4 µM [falling, partial curve]. For the same molecule, the AC50 under setting [1] was 11.6 µM [falling, partial curve, poor fit].
Turning to `CC1CCc2sc3ncnc(N4CCN(CCO)CC4)c3c2C1` (stereo unspecified), the cell number change was determined as 5.84%.
On to `O=C(O)c1cccc(NC(=S)NC(=O)c2ccc3ccccc3c2)c1`, for which the cell number change was -1.51%. Further, under setting [1], the AC50 was 10.3 µM [falling, partial curve, poor fit].
As to `CN1CCN(C(=O)/C(=C\c2ccc3c(c2)OCO3)NC(=O)c2cccs2)CC1`, the cell number change is -55.5%. Further, the AC50 under setting [2] is 8.2 µM [falling, partial curve]. Further, under setting [1], the AC50 is 2.91 µM [falling, partial curve].
As for `N#Cc1ccc(NC(=O)Nc2cccc(C#N)c2)cc1`, the cell number change was -60.6%. For the same molecule, the AC50 under setting [2] was 29.1 µM [falling, partial curve].
`CC(C)C(C(=O)Nc1ncn[nH]1)N1C(=O)c2ccccc2C1=O` (stereo unspecified): the cell number change came to 75.2%. Besides, the AC50 under setting [1] was 29.1 µM [rising, single point].
Turning to `CCOC(=O)c1ccccc1NC(=O)COc1ccccc1`, the cell number change is 5.89%.
Consider `COc1ccc(NC(=O)Cn2nc(C(=O)O)c3ccccc3c2=O)cc1OC`, for which the cell number change is -34.3%.
On to `Cc1ccc(NC(=O)CCN2C(=O)C3CCCCC3C2=O)cc1[N+](=O)[O-]` (stereo unspecified), for which, under setting [1], the AC50 is 29.1 µM [rising, single point].
As for `COCCNCC(=O)NCC12CC3CC(CC(C3)C1)C2`, the cell number change came out at 2.6%.
As for `CCOC(=O)Cn1nc(C)cc1NC(=O)c1ccncc1`, the cell number change amounted to 123%. The AC50 under setting [2] is 1.3 µM [rising, full curve]. The concentration at half-maximal activity (AC50) under setting [1] was 6.51 µM [rising, full curve].
In the case of `CCOc1ccc(-c2nc(C#N)c(NCC3CCCO3)o2)cc1` (stereo unspecified), the cell number change came to 6.2%. Under setting [2], the AC50 was 6.51 µM [rising, single point]. Under setting [1], the AC50 is 8.2 µM [rising, partial curve].
As to `O=C(COC(=O)C1CC1)Nc1ccc2[nH]c(=O)[nH]c2c1`, the cell number change is -32.3%.
Regarding `COc1ccc(/C=C(/NC(=O)c2ccccc2)C(=O)N/N=C/c2ccc3c(c2)OCO3)cc1OC`, the cell number change is -24.5%. Further, under setting [1], the half-maximal activity concentration (AC50) is 1.3 µM [falling, partial curve].
For the molecule `N/C(Cc1ccc([N+](=O)[O-])cc1)=N\OC(=O)c1ccco1`, the cell number change came out at 17.5%. Moreover, the AC50 under setting [1] was 18.4 µM [rising, single point].
As for `O=C1C(CSCc2ccccc2)NC(=S)N1c1ccccc1` (stereo unspecified), the cell number change was found to be 12.6%. The AC50 under setting [2] is 1.84 µM [rising, partial curve].
For `CCC(=O)N/N=c1/sc2ccccc2n1C`, the cell number change was -50.1%. The half-maximal activity concentration (AC50) under setting [2] is 18.4 µM [falling, single point]. Besides, under setting [1], the AC50 was 23.1 µM [falling, single point].
With `CN(C)CCCNc1oc(-c2ccccc2Cl)nc1S(=O)(=O)c1ccccc1`, the cell number change is -11.4%. In addition, under setting [1], the AC50 was 1.84 µM [falling, partial curve, poor fit].
On to `O=C(COC(=O)c1ccc(-n2cnnn2)cc1)Nc1cc(Cl)ccc1F`, for which the cell number change is -33.6%. For the same molecule, the concentration at half-maximal activity (AC50) under setting [2] was 25.9 µM [falling, partial curve].
With `Cc1noc(C)c1CSc1nnc(-c2ccncc2)n1-c1cccc(Cl)c1C`, the AC50 is, setting by setting: under setting [2], 0.731 µM [rising, single point]; under setting [1], 0.651 µM [rising, single point].
For `Cc1ccc(OCCCn2c(CO)nc3ccccc32)cc1`, the cell number change was -15.4%.
As for `O=S(=O)(c1ccc(-n2cnnn2)cc1)N(C1CCCCC1)C1CCCCC1`, the cell number change is -27.3%. For the same molecule, the concentration at half-maximal activity (AC50) under setting [1] is 0.116 µM [falling, full curve, poor fit].
`CN(C)CCCn1c(SCC(=O)Nc2sc3c(c2C#N)CCCC3)nnc1-c1ccncc1`: the cell number change was determined as 60.4%. The concentration at half-maximal activity (AC50) under setting [2] is 29.1 µM [rising, single point].
For `O=S(=O)(c1ccc(N=C2NN=C(c3cc(F)ccc3F)CS2)cc1)N1CCOCC1`, the cell number change was -7.23%. Besides, under setting [1], the AC50 is 0.651 µM [rising, partial curve, poor fit].
Turning to `CC(C)(C)c1cc(Br)ccc1OCC(=O)Nc1ncn[nH]1`, the AC50 is 6.51 µM [rising, partial curve, poor fit] under setting [2] and 2.31 µM [rising, partial curve] under setting [1].
For `Cc1ccc(F)cc1NC(=O)CN1C(=O)NC(C)(c2ccc3c(c2)OCCO3)C1=O` (stereo unspecified), the cell number change was -5.04%.
As to `O=C(N/N=C\c1ccc(S(=O)(=O)O)o1)c1ccc2c(c1)OCO2`, the cell number change came to 2.38%. Under setting [1], the half-maximal activity concentration (AC50) is 0.58 µM [rising, single point].
Take `C=CCc1cccc2cc(C(=O)Nc3ccc(CC(=O)O)cc3)c(=O)oc12`: the cell number change stood at 12.8%. Further, the AC50 under setting [2] was 2.31 µM [rising, partial curve, poor fit]. Under setting [1], the AC50 was 2.31 µM [rising, partial curve, poor fit].
As to `O=C1COc2ccccc2N1Cc1ccc(Cl)cc1`, the cell number change is -20.2%.
`NC(=O)c1ncc(C(F)(F)F)cc1Cl`: the cell number change is 33.4%. Further, the AC50 under setting [2] is 14.6 µM [rising, single point]. Besides, the AC50 under setting [1] was 29.1 µM [rising, single point].
`CCOC(=O)c1c(NC(=O)CSc2nnc(-c3cccnc3)n2Cc2ccco2)sc(C)c1C`: the cell number change is -18%. Moreover, the AC50 under setting [1] was 0.092 µM [rising, full curve, poor fit].
`CC(C)CSc1nnc2c3ccccc3n(C)c2n1`: the cell number change amounted to 8.8%. For the same molecule, the half-maximal activity concentration (AC50) under setting [1] was 29.1 µM [falling, single point].
In the case of `N#CC1=CN(Cc2ccccc2)C=C(/C=N/Nc2ccccc2)C1`, the cell number change was -20.3%. For the same molecule, the AC50 under setting [2] was 0.0082 µM [falling, full curve, poor fit].
In the case of `CCOC(=O)c1c(C)[nH]c(C)c1C(=O)CSc1nc2ccccc2c(=O)n1-c1ccc(C)cc1`, the cell number change worked out at 8.75%. Besides, the AC50 under setting [1] was 0.13 µM [rising, full curve].
Take `COc1ccc(CCNC(=O)CSc2nnc(-c3cccc(C)c3)o2)cc1OC`: the cell number change is -18.8%.
On to `Cc1ccc(OCC(=O)Nc2ccc(-c3nc4ncccc4o3)cc2)cc1`, for which the cell number change was 1.98%. Also, the half-maximal activity concentration (AC50) under setting [1] was 2.59 µM [rising, single point].
As for `COc1cccc2cc(C(=O)Nc3cc(Cl)ccc3N3CCOCC3)c(=O)oc12`, the cell number change turned out to be 6.16%. The AC50 under setting [1] is 1.03 µM [falling, full curve, poor fit].
As to `CC12CCC(=O)N1C(C(=O)OCC(=O)Nc1ccc(S(N)(=O)=O)cc1)CS2` (stereo unspecified), the cell number change was found to be 12%. Also, under setting [2], the AC50 was 0.00411 µM [rising, full curve, poor fit].
On to `O=C(COC(=O)c1ccccc1Br)NCCN1C(=O)CSC1=O`, for which, under setting [2], the half-maximal activity concentration (AC50) was 6.51 µM [falling, single point].
In the case of `CCC1=NN2C(=N)/C(=C\c3ccc(OCCOc4ccccc4)c(OC)c3)C(=O)N=C2S1`, the cell number change came to 14.7%. Besides, under setting [1], the AC50 is 29.1 µM [rising, single point].
For the molecule `O=C1CC(N2CCN(c3ccc(F)cc3)CC2)C(=O)N1c1ccccc1` (stereo unspecified), the cell number change was found to be 18.7%. Also, the concentration at half-maximal activity (AC50) under setting [1] is 14.6 µM [rising, single point].
On to `COc1ccc(-c2csc(NC(=O)CSc3nnnn3C)n2)cc1OC`, for which the cell number change turned out to be 2.12%. For the same molecule, the AC50 under setting [1] is 0.082 µM [rising, full curve, poor fit].
Consider `O=C(Nc1ccc2c(c1)OCO2)C1CCN(C(=O)c2ccc([N+](=O)[O-])cc2)CC1`, for which the cell number change came out at 35.7%.
Consider `Cn1c(Cl)cnc1C1CC(=O)c2cc(Cl)ccc2O1` (stereo unspecified), for which the cell number change is -138%. Also, the concentration at half-maximal activity (AC50) under setting [2] was 29.1 µM [falling, single point]. Further, the AC50 under setting [1] was 29.1 µM [falling, single point].
In the case of `O=C(NCc1ccccn1)c1ccc(OC2CCN(Cc3ccc(F)cc3F)CC2)cc1`, the cell number change came out at 16.8%. The AC50 under setting [1] was 6.51 µM [rising, single point].
For `O=C(CCc1nnc(C2(c3ccc(Cl)cc3)CCC2)o1)N1CCCC(O)C1` (stereo unspecified), the cell number change stood at 15.2%. In addition, the AC50 under setting [2] is 1.16 µM [rising, full curve, poor fit].
